Reference: PubChem BioAssay AID1671190 (National Center for Advancing Translational Sciences (NCATS), 2021)
The campaign covered roughly 580,000 compounds. About 6,100 (1.1%) were called active. This list was built around the results that the source calls inconclusive (neither active nor inactive); the mix of calls is not that of the screen. The call rests on the fitted dose curve; in most records, active means well fitted inhibition curve with a large enough effect; inconclusive means small, poorly fitted or top-dose-only effect, or another doubt; inactive means no such curve, though single readings can be large or run the other way. Where the call is inconclusive, the potency comes from a doubtful curve fit.
On the % scale 0 is the no-effect control and ±100 the full control effect; potency means the concentration at half of the fitted maximal effect.

Protein sequences, listed by entry. Tags and fused reporters are not part of them. Lines headed by an entry give the natural chain unless they say otherwise; changes in a name come on top.
UniProt P18054: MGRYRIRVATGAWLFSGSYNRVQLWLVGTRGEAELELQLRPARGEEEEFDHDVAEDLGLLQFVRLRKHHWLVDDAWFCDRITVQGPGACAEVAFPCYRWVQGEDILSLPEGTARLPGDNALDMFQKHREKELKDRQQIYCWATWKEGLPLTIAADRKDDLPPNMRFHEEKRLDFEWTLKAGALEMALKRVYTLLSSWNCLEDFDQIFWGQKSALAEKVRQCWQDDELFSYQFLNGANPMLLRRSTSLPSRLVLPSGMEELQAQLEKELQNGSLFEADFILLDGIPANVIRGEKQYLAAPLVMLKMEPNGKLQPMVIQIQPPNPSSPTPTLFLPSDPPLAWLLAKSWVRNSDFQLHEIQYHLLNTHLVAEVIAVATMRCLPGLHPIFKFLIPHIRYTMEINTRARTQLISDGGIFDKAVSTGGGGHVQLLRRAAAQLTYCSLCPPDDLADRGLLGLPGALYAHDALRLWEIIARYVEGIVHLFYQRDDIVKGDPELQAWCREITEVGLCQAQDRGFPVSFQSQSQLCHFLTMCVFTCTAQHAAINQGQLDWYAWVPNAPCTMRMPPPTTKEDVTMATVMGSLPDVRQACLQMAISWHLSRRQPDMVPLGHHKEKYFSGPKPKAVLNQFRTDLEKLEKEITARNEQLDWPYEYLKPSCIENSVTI

Each compound was assayed against Polyunsaturated fatty acid lipoxygenase ALOX12 (Homo sapiens) (UniProt P18054) (assay: Primary qHTS assay for inhibitors of human arachidonate 12S-lipoxygenase (ALOX12): Round 2). Conditions: purified 12hLO, xylenol orange hydroperoxide absorbance; activity change, negative = inhibition: at 108 µM (top of the series) unless noted.
Procedure, shortened: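 Purified human 12hLO at 150 nM in 25 mM Hepes, 0.01% Triton X-100, pH 7.0, preincubated 15 min at room temperature with compound. Reaction started with 40 uM arachidonic acid, 30 min at room temperature. Hydroperoxide measured by Fe-xylenol orange, 573/405 nm absorbance ratio.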
`COc1ccc2nc(C)cc(NCc3cccc(C(F)(F)F)c3)c2c1` was tested, and the Potency was inconclusive: 79.4 µM [inhibitor, partial curve, poor fit]. With `CCC(N)(C(=O)O)c1ccc(C(=O)O)cc1` (centres undefined) the “activity change, negative = inhibition” value was inactive: 5.59%. `CC(NC(=O)c1cccc(S(=O)(=O)Nc2ccc3c(c2)OCO3)c1)c1cccc(Cl)c1` (centres undefined) was tested, and the Potency was inconclusive: 56.2 µM [inhibitor, partial curve, poor fit]. `Cc1ccccc1S(=O)c1ccccc1C(=O)O` (centres undefined) was tested, and the Potency was inconclusive: 25.1 µM [inhibitor, partial curve, poor fit]. With `O=C(c1ccccc1)N1CCN(Cc2ccccc2Br)CC1` the Potency was inconclusive: 2.82 µM [inhibitor, full curve, poor fit]. `Oc1ccc(-c2nc3ccc(Cl)cn3c2Nc2ccc(Cl)cc2)cc1` was tested, and the Potency was inconclusive: 39.8 µM [inhibitor, partial curve, poor fit]. In the case of `CCOc1cccc(OCCCCN2CCOCC2)c1`, the Potency is reported as inconclusive: 3.98 µM [inhibitor, full curve, poor fit]. For `C=C(C)Cn1c(SCC(=O)N/N=C/c2ccccc2OCC(=O)O)nnc1-c1ccc(Br)cc1`, the Potency was inconclusive: 2.51 µM [inhibitor, full curve, poor fit]. `O=C(NCCN1CCC(n2c(=O)[nH]c3ccccc32)CC1)c1ccc(Cl)c(Cl)c1` was tested, and the Potency was active: 31.6 µM. For `Cc1cccc(-c2n[nH]c(=S)n2/N=C/c2ccc(C)o2)c1`, the Potency was inconclusive: 56.2 µM [inhibitor, partial curve, poor fit]. `CN(C)C1(CNC(=O)Cc2c[nH]c3ccccc23)CCCCCC1` was tested, and the “activity change, negative = inhibition” value was inactive: 7.93%. With `CC1(c2ccncc2)Nc2ccccc2-c2nc3ccccc3n21` (centres undefined) the Potency was inconclusive: 141 µM [inhibitor, single point]. For `CCOc1ccc(CN(CC)Cc2cc(=O)oc3ccc(OC)cc23)cc1`, the Potency was inconclusive: 39.8 µM [inhibitor, partial curve, poor fit]. In the case of `CC(/C=C/c1ccccc1)=N/NC(=O)c1cc([N+](=O)[O-])cc([N+](=O)[O-])c1`, the “activity change, negative = inhibition” value is reported as inactive: 1.62%. With `O=C(C1CCOC1)N1CCC2(CC1)NCCc1c2[nH]c2ccccc12` (centres undefined) the “activity change, negative = inhibition” value was inactive: 13%. In the case of `COc1ccc(Cc2n[nH]c(=S)n2C)cc1Br`, the Potency is reported as inconclusive: 44.7 µM [inhibitor, partial curve, poor fit]. In the case of `COc1ccc(CN2CC3(CCN(C(=O)Nc4cccc(C(F)(F)F)c4)CC3)C2=O)cc1`, the Potency is reported as inconclusive: 8.91 µM [inhibitor, full curve]. With `O=C(Nc1cccc([N+](=O)[O-])c1)c1[nH]ncc1Cl` the Potency was inconclusive: 141 µM [inhibitor, partial curve, poor fit]. In the case of `CSc1cccc(Nc2nc(N)c(C(=O)c3ccccc3Cl)s2)c1`, the Potency is reported as inconclusive: 14.1 µM [inhibitor, partial curve, poor fit]. For `OC[C@@H]1[C@@H](c2ccc(F)cc2)C(c2cccc(Cl)c2)=NN1c1ccccc1`, the Potency was inconclusive: 63.1 µM [inhibitor, partial curve, poor fit]. In the case of `CC1CCN(C(=O)c2ccc3c(c2)OCO3)CC1`, the Potency is reported as inconclusive: 0.316 µM [inhibitor, full curve]. `Cc1ccc(N=C/C(C(=O)C(F)(F)F)=C(\O)c2cccs2)cc1` was tested, and the Potency was inconclusive: 35.5 µM [inhibitor, single point]. For `CCc1ccc(/C=C2/SC(=S)N(CCC(=O)NCCCN3CCOCC3)C2=O)cc1`, the Potency was inconclusive: 79.4 µM [inhibitor, partial curve, poor fit]. For `CC(C)NCc1c(O)c(Br)cc2oc3c(c12)CCCC3`, the Potency was inconclusive: 44.7 µM [inhibitor, partial curve, poor fit]. `O=c1[nH]c2ccc(S(=O)(=O)Nc3ccc(Cl)cc3)cc2o1` was tested, and the Potency was inconclusive: 100 µM [inhibitor, partial curve, poor fit]. `Cc1cn2nc(C(=O)N3CCC(C(=O)NCc4cccnc4)CC3)cc2c(=O)[nH]1` was tested, and the Potency was inconclusive: 12.6 µM [inhibitor, partial curve]. In the case of `CCc1cc(=O)n(CC(=O)Nc2cccc(C#N)c2)c(-c2ccccc2)n1`, the Potency is reported as inconclusive: 2.51 µM [inhibitor, single point]. In the case of `Cc1cc(NC(=O)c2cc(-c3ccc(C)s3)nc3ccccc23)no1`, the Potency is reported as inconclusive: 70.8 µM [inhibitor, partial curve, poor fit]. `CCN(CC)CC1CCN(C(=O)c2ccc(C#N)cc2)CC1` was tested, and the “activity change, negative = inhibition” value was inactive: 28.7%. For `CSC1=N/C(=C\c2cccc(Cl)c2)C(=O)S1`, the Potency was inconclusive: 63.1 µM [inhibitor, partial curve, poor fit]. With `CCc1cc(=O)oc2c(C)c(OC(C)C(=O)NC3CC(C)(C)NC(C)(C)C3)ccc12` (centres undefined) the Potency was “inactive”. `CCc1ccc(-c2noc(CSc3nc4ccccc4c(=O)n3CCCO)n2)cc1` was tested, and the “activity change, negative = inhibition” value was inactive: 15.6%. In the case of `O=C(COc1ccc2c(=O)c(Oc3ccc(F)cc3)coc2c1)Nc1ccc(N2CCOCC2)cc1`, the Potency is reported as inconclusive: 141 µM [inhibitor, single point]. `COc1ccccc1[C@@H]1CN(C(=O)CN2CCOCC2)C[C@H]1C(=O)O` was tested, and the “activity change, negative = inhibition” value was inactive: 63.1%. `O=C(NNC(=S)NC(=O)c1ccccc1)c1ccc([N+](=O)[O-])cc1` was tested, and the Potency was inconclusive: 25.1 µM [inhibitor, partial curve, poor fit]. For `C[C@@H](NC(=O)Nc1cccnc1)c1onc(-c2ccc(F)cc2)c1C(=O)O`, the Potency was inconclusive: 44.7 µM [inhibitor, full curve]. `Cc1cc(NS(=O)(=O)c2ccc(Nc3nc(-c4ccc(C)c(C)c4)cs3)cc2)no1` was tested, and the Potency was active: 4.47 µM. `Cc1cccc(C(=O)NNC(=S)NC(=O)/C=C/c2cccs2)c1` was tested, and the Potency was active: 35.5 µM. In the case of `CN(C)S(=O)(=O)c1cc(NC(=O)CNCc2ccccc2)ccc1Cl`, the Potency is reported as inconclusive: 0.316 µM [inhibitor, full curve, poor fit]. With `Clc1cc(Br)ccc1OCCCn1ccnc1` the Potency was inconclusive: 4.47 µM [inhibitor, full curve, poor fit]. With `O=C1CC(=O)N(CCNc2ncc(C(F)(F)F)cc2Cl)C(=O)N1` the Potency was inconclusive: 39.8 µM [inhibitor, partial curve, poor fit]. In the case of `COc1ccc(CC(=O)OCC(=O)Nc2cc(S(=O)(=O)N3CCOCC3)ccc2N2CCCC2)cc1`, the “activity change, negative = inhibition” value is reported as inactive: -2.7%. In the case of `CCN(C[C@H]1N[C@@](Cc2ccccc2)(C(=O)OC)[C@H]2C(=O)N(C)C(=O)[C@@H]12)C(=O)c1ccc(C(C)(C)C)cc1`, the Potency is reported as inconclusive: 44.7 µM [inhibitor, partial curve, poor fit]. With `Cc1c(-c2ccco2)[n+](=O)c2c(n1[O-])CCC2` the Potency was inconclusive: 0.631 µM [inhibitor, full curve, poor fit]. `CCOc1ccc(-c2[nH]ncc2-c2ccc(Cl)cc2)c(O)c1` was tested, and the Potency was inconclusive: 70.8 µM [inhibitor, partial curve, poor fit]. For `Cn1cnc2c1c(=O)n(CCCSc1nnnn1-c1ccccc1)c(=O)n2C`, the Potency was inconclusive: 10 µM [inhibitor, full curve]. With `Cc1ccc(CNC(=O)C2CCC(CNc3c(N4CCOCC4)c(=O)c3=O)CC2)cc1` (centres undefined) the Potency was inconclusive: 3.16 µM [inhibitor, full curve, poor fit]. `CN(C)CCCNC(=O)c1cc(-c2ccc3c(c2)OCO3)nc2ccccc12` was tested, and the “activity change, negative = inhibition” value was inactive: 2.19%. `NCCc1c(-c2ccccc2)n(-c2ccccc2)c2ccccc12` was tested, and the Potency was inconclusive: 70.8 µM [inhibitor, partial curve, poor fit]. In the case of `CCN(CC)CCCNc1nc(-c2ccccc2)nc2ccccc12`, the Potency is reported as inconclusive: 2.24 µM [inhibitor, full curve, poor fit]. In the case of `O=C(NC1CCCCC1)N1CCc2ccccc2C1`, the “activity change, negative = inhibition” value is reported as inactive: -7.18%. `CCn1c(=O)c(CCC(=O)N2CCN(c3ccccn3)CC2)c(C)c2c(C)nn(-c3cccc(C)c3)c21` was tested, and the “activity change, negative = inhibition” value was inactive: 0.259%. With `O=C(O)CCc1ccc(-c2cccs2)n1NC(=O)c1ccc(Cl)cc1Cl` the Potency was inconclusive: 44.7 µM [inhibitor, partial curve]. With `CC(=O)N1CCc2c(sc3c2c(=O)n(-c2ccccc2)c(=O)n3CC(=O)Nc2cc(C)cc(C)c2)C1` the Potency was inconclusive: 100 µM [inhibitor, partial curve, poor fit]. For `COc1cccc(CCN2CCC(CNS(=O)(=O)c3cc(-c4cc(C)no4)ccc3OC)CC2)c1`, the Potency was inconclusive: 44.7 µM [inhibitor, partial curve, poor fit]. For `O=C(NCC(=O)N1CCN(S(=O)(=O)c2ccc3c(c2)OCCO3)CC1)c1ccc2c(c1)OCO2`, the “activity change, negative = inhibition” value was inactive: -16.8%. `CCOc1ccc(CCNC(=O)c2c(C)oc3ncn(CC(C)C)c(=O)c23)cc1OCC` was tested, and the “activity change, negative = inhibition” value was inactive: -9.5%. For `CCn1c(-c2ccc(C)cc2)n[nH]c1=S`, the Potency was inconclusive: 14.1 µM [inhibitor, partial curve, poor fit]. `COCCSc1nnc(NC(=O)c2cc(OC)c(OC)cc2[N+](=O)[O-])s1` was tested, and the Potency was inconclusive: 44.7 µM [inhibitor, partial curve, poor fit]. For `O=C(NC1CCCC1)N[C@@H]1C[C@H](Cn2cc(C3CC3)nn2)[C@@H](O)[C@H]1O`, the Potency was active: 22.4 µM. `O=C1NC(Cc2ccccc2)c2nc3ccc(F)cc3c(=O)n2-c2cc3ccccc3cc21` (centres undefined) was tested, and the “activity change, negative = inhibition” value was inactive: -38.6%. For `CC(=O)N1C(=S)NC(=O)/C1=C1/C(=O)N(CC(=O)Nc2cccc(C)c2)c2ccccc21`, the Potency was inconclusive: 50.1 µM [inhibitor, partial curve, poor fit]. For `Cn1cc(S(=O)(=O)N2CCC(C(=O)Nc3cccc(Br)c3)CC2)cc1C(N)=O`, the “activity change, negative = inhibition” value was inactive: 8.29%. With `Cc1ccccc1C(=O)N1CCN(c2ccc(NC(=S)NC(=O)c3cccs3)cc2)CC1` the Potency was active: 35.5 µM.
